At least one structure is not confirmed: it was looked up by name or label, or the drawing left a doubt.
Test system: H929-1051
Assay: Apoptosis by Caspase-Glo 3/7 normalized to CellTiter-Glo in H929-1051 cells, dexamethasone alone or with compound
Assay type: cell-based, human
Conditions: dexamethasone alone; 72 hours

C[C@@H]1C[C@H]2[C@@H]3CCC4=CC(=O)C=C[C@]4(C)[C@@]3(F)[C@@H](O)C[C@]2(C)[C@@]1(O)C(=O)CO [dexamethasone, reference compound]
apoptosis, Caspase-3 change relative to DMSO: minor increase in apoptosis
